The results are deposited in PubChem (AID1159506; NCATS, 2015).

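Luminescence from an EWS-FLI1 target-promoter (NR0B1) reporter, set against a CMV-promoter reporter, two days after silencing single genes in TC32 Ewing sarcoma cells.
Each siRNA was applied at 20 nM.
A z-score of the log NR0B1-over-CMV signal, less the median of siRNAs with the same seed; more negative means a stronger specific loss of the NR0B1 reporter.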

The strongest results of the screen are mostly left out here.
Sequences are the guide (antisense) strand, without overhang.

- UAUAGCACCGGGAAAGACC against ZNF697 : seed-corrected z-score 0.0947
- UGAGGGAGUAGGUAGAUCC against ANGPTL7 : seed-corrected z-score -0.2755
- UAUCAUCAAAGUCCUCCUG against IFNA5 : seed-corrected z-score -0.5038
- UAUUGAAUGCCCAAGGAGC against C8A : seed-corrected z-score 1.23
- UCAGCUAUGAUUGUUGUUG against SSBP1 : seed-corrected z-score -0.7003
- UGAGUCAUUAGCUUAUAGG against MRPS22 : seed-corrected z-score -0.132
- UUUGUAAUAGCCCUCCUCA against SPOCK1 : seed-corrected z-score 0.3152
- UUCGUAAAUGAAGCGGACG against FAM195B : seed-corrected z-score 0.1205
- UUGUUCUCUGGAUUCACCC against DND1 : seed-corrected z-score 0.2553
- UUCCUAUCUGGAAUCGAGC against DDX52 : seed-corrected z-score 0.7177
- AACGCAUAACCAUAGGUCC against SLC35B3 : seed-corrected z-score 1.396
- AACUAUGUUAUUUGAGUGC against LRRC28 : seed-corrected z-score 0.3587
- UUCUUAACAAGUCGAAAUC against DDIT4L : seed-corrected z-score 1.881
- AAAGACAACGGGAAGAACC against TOMM22 : seed-corrected z-score 0.003863
- UUCGAUGUCAUCUAUGGAC against ZC3H7B : seed-corrected z-score 0.1926
- AUCGGAAAACCAUGUAUCG against ABCB1 : seed-corrected z-score 0.9269
- UCUACUUUCCUUCCGACCG against FLJ20021 : seed-corrected z-score -0.905
- UAUACUUACAAGGGUUUUC against ZNF354A : seed-corrected z-score -0.2972
- UCUUGUCCAAUUCAUAGAC against PGAM1 : seed-corrected z-score -0.4183
- AAAGAGAUUACAAGUGUCA against ATF4P3 : seed-corrected z-score 0.2364
- AGAAUUGUUAGUGGUGAAG against LOC390846 : seed-corrected z-score 0.02139
- UACAUGAAUGUUAUAGACC against OR8D2 : seed-corrected z-score 0.755
- UCUGAUGAUUCGGAACUGG against PRICKLE3 : seed-corrected z-score 0.6328
- UGUAAGAGUAGGGCGGUUU against FOXB2 : seed-corrected z-score -1.244

Some entries from above, unchanged:

| siRNA | gene | seed-corrected z-score |
|---|---|---|
| `AAAGAGAUUACAAGUGUCA` | ATF4P3 | 0.2364 |
| `UAUUGAAUGCCCAAGGAGC` | C8A | 1.23 |